These are yes or no findings as the source states them, for the method shown. Some results given as binding are weak or reduced against the parent protein; the word gives no strength.
Target: M2R-GIRK concatemer (Halo-M2R-GIRK4-SNAP) (human) (UniProt P08172+P48544)
Experiment: SDS-PAGE with Western blot; HEK-293T cells transiently transfected with GPCR-GIRK4 concatemers, mixed with loading buffer containing 4% SDS and 10% β-mercaptoethanol; NuPAGE 4-12% Bis-Tris gels; anti-SNAP-tag or anti-HaloTag

Amino acid sequences for entries named in this document (tags omitted). A change or cut given only in a name is not applied to a line headed by its entry.
UniProt P08172: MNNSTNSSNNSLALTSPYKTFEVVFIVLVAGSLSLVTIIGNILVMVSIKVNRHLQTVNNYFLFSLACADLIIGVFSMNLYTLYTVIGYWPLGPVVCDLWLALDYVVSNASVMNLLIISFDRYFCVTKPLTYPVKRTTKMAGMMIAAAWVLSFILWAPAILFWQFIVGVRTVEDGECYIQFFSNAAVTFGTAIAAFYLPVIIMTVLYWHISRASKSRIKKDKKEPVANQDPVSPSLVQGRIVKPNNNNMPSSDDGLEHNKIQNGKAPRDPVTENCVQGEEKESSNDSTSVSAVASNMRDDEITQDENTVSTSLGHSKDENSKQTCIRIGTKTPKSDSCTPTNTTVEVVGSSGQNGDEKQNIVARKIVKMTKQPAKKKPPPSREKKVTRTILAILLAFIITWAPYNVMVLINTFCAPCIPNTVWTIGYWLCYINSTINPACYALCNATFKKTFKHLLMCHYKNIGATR
UniProt P48544: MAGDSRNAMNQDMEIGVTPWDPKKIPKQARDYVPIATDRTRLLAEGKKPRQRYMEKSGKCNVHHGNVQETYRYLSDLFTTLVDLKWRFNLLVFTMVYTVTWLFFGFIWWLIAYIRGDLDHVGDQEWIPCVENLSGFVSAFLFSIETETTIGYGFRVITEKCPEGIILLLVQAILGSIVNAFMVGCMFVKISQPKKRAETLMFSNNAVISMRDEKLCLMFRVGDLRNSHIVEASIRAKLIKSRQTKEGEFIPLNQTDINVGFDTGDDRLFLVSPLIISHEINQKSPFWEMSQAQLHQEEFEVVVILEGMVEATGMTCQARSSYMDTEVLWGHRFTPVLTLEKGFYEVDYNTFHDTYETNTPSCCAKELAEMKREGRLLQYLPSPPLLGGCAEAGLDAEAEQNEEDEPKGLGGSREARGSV

binding: binds
Substance: M2R-GIRK concatemer (Halo-M2R-GIRK4-SNAP) (from UniProt P08172 1-466; P48544 1-419)
